{"source": "PubChem BioAssay AID504744 (Drosophila RNAi Screening Center, 2011)", "screen": "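Uncover factors, including feedback loops, that control dAkt activation in fly cells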 (primary screen)", "cells": "Drosophila Kc167 cells", "reagent": "long dsRNA against Drosophila genes, 250 ng dsRNA per well of a 384-well plate", "time to read-out": "3 days of knock-down, then overnight serum-free starvation before stimulation", "challenge": "bovine insulin at 387 nM for 10 minutes after 12 h without serum", "measured": "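In-cell antibody fluorescence for phospho-dAkt in each well over DNA-dye signal, with log2 residuals expressed as z-scores adjusted for cell count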", "hit rule": "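Under insulin, a gene counts as a hit if the average z-score of two replicates lies above 2.5 or below -2.5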", "note": "The screen tested about 23,000 reagents; shown is a random part of those that have a named target and a result. Of all reagents, 98 (0.43%) are marked active. 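Only hit calls are given; the phospho-dAkt signals, z-scores and hit direction were not deposited.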 Names joined by + are all predicted targets of the reagent. Reagent sequences are not shown."}
{"predicted target":"wdb (widerborst)","dsRNA":"DRSC14163","call":"active"}
{"predicted target":"HP6 (Heterochromatin protein 6)","dsRNA":"DRSC00471","call":"inactive"}
{"predicted target":"l(1)G0469 (lethal (1) G0469)","dsRNA":"DRSC19412","call":"inactive"}
{"predicted target":"l(1)G0469 (lethal (1) G0469)","dsRNA":"DRSC19462","call":"inactive"}
{"predicted target":"Sema2a (Semaphorin 2a)","dsRNA":"DRSC07551","call":"inactive"}
{"predicted target":"danr (distal antenna-related)","dsRNA":"DRSC14651","call":"inactive"}
{"predicted target":"CG34425","dsRNA":"DRSC12210","call":"inactive"}
{"predicted target":"CG34425","dsRNA":"DRSC22315","call":"inactive"}
{"predicted target":"CG34030","dsRNA":"DRSC08866","call":"inactive"}
{"predicted target":"Prx4 (Peroxiredoxin 4)","dsRNA":"DRSC08668","call":"inactive"}
{"predicted target":"CG30344","dsRNA":"DRSC22510","call":"inactive"}
{"predicted target":"CG33303","dsRNA":"DRSC02848","call":"inactive"}
{"predicted target":"SkpA (SKP1-related A)","dsRNA":"DRSC18833","call":"inactive"}
{"predicted target":"Bgb","dsRNA":"DRSC08148","call":"inactive"}
{"predicted target":"CG34428","dsRNA":"DRSC10119","call":"inactive"}
{"predicted target":"Mys45A (Mystery 45A)","dsRNA":"DRSC07067","call":"inactive"}
{"predicted target":"Dus1 (Dihydrouridine synthase 1)","dsRNA":"DRSC00623","call":"inactive"}
{"predicted target":"B-H1 (BarH1)","dsRNA":"DRSC19334","call":"inactive"}
{"predicted target":"B-H1 (BarH1)","dsRNA":"DRSC21922","call":"inactive"}
{"predicted target":"hiro (highroad)","dsRNA":"DRSC08564","call":"inactive"}
{"predicted target":"CG13228","dsRNA":"DRSC06348","call":"inactive"}
{"predicted target":"Coa8 (Cytochrome c oxidase assembly factor 8)","dsRNA":"DRSC17959","call":"inactive"}
{"predicted target":"CG12909","dsRNA":"DRSC06224","call":"inactive"}
{"predicted target":"CG15126","dsRNA":"DRSC06548","call":"inactive"}
{"predicted target":"CG32110","dsRNA":"DRSC09220","call":"inactive"}
{"predicted target":"smog","dsRNA":"DRSC00334","call":"inactive"}
{"predicted target":"smog","dsRNA":"DRSC00335","call":"inactive"}
{"predicted target":"DIP1 (DISCO Interacting Protein 1)","dsRNA":"DRSC20818","call":"inactive"}
{"predicted target":"Ir67c (Ionotropic receptor 67c)","dsRNA":"DRSC22097","call":"inactive"}
{"predicted target":"a10 (antennal protein 10)","dsRNA":"DRSC11319","call":"inactive"}
{"predicted target":"CG2909","dsRNA":"DRSC18241","call":"inactive"}
{"predicted target":"CG31781 (retired record)","dsRNA":"DRSC02431","call":"inactive"}
{"predicted target":"CG31781 (retired record)","dsRNA":"DRSC02432","call":"inactive"}
{"predicted target":"sqa (spaghetti-squash activator)","dsRNA":"DRSC06693","call":"inactive"}
{"predicted target":"sqa (spaghetti-squash activator)","dsRNA":"DRSC21635","call":"inactive"}
{"predicted target":"ssp5 (short spindle 5)","dsRNA":"DRSC14955","call":"inactive"}
{"predicted target":"CG8252","dsRNA":"DRSC07126","call":"inactive"}
{"predicted target":"CG14420","dsRNA":"DRSC17917","call":"inactive"}
{"predicted target":"CG11911","dsRNA":"DRSC00331","call":"inactive"}
{"predicted target":"Dcps (Decapping enzyme, scavenger)","dsRNA":"DRSC12299","call":"inactive"}
{"predicted target":"Fdh (Formaldehyde dehydrogenase)","dsRNA":"DRSC16670","call":"inactive"}
{"predicted target":"CG31221","dsRNA":"DRSC14335","call":"inactive"}
{"predicted target":"CG31221","dsRNA":"DRSC16217","call":"inactive"}
{"predicted target":"CG6978","dsRNA":"DRSC18409","call":"inactive"}
{"predicted target":"CG42354 + CG42353","dsRNA":"DRSC20172","call":"inactive"}
{"predicted target":"sturkopf","dsRNA":"DRSC08637","call":"inactive"}
{"predicted target":"mus301 (mutagen-sensitive 301)","dsRNA":"DRSC10939","call":"inactive"}
{"predicted target":"PNUTS (Phosphatase 1 nuclear targeting subunit)","dsRNA":"DRSC00638","call":"inactive"}
{"predicted target":"PNUTS (Phosphatase 1 nuclear targeting subunit)","dsRNA":"DRSC22136","call":"inactive"}
{"predicted target":"CG15073","dsRNA":"DRSC06506","call":"inactive"}
{"predicted target":"Def (Defensin)","dsRNA":"DRSC07398","call":"inactive"}
{"predicted target":"CG42286 (retired record)","dsRNA":"DRSC14357","call":"inactive"}
{"predicted target":"Atox1 (Antioxidant 1 copper chaperone)","dsRNA":"DRSC22416","call":"inactive"}
{"predicted target":"CG9945","dsRNA":"DRSC07347","call":"inactive"}
{"predicted target":"CG11598","dsRNA":"DRSC14331","call":"inactive"}
{"predicted target":"CG14676","dsRNA":"DRSC12262","call":"inactive"}
{"predicted target":"Apc (APC-like)","dsRNA":"DRSC14114","call":"inactive"}
{"predicted target":"CG15212","dsRNA":"DRSC10212","call":"inactive"}
{"predicted target":"klhl10 (kelch like family member 10)","dsRNA":"DRSC05274","call":"inactive"}
{"predicted target":"klhl10 (kelch like family member 10)","dsRNA":"DRSC19171","call":"inactive"}
{"predicted target":"klhl10 (kelch like family member 10)","dsRNA":"DRSC20750","call":"inactive"}
{"predicted target":"klhl10 (kelch like family member 10)","dsRNA":"DRSC20925","call":"inactive"}
{"predicted target":"dia (diaphanous)","dsRNA":"DRSC03519","call":"inactive"}
{"predicted target":"CG7741","dsRNA":"DRSC07035","call":"inactive"}
{"predicted target":"CG12011","dsRNA":"DRSC08219","call":"inactive"}
{"predicted target":"mei-P22 (meiotic P22)","dsRNA":"DRSC11366","call":"inactive"}
{"predicted target":"Kr-h2 (Kruppel homolog 2)","dsRNA":"DRSC03356","call":"inactive"}
{"predicted target":"fu (fused)","dsRNA":"DRSC20333","call":"inactive"}
{"predicted target":"mxc (multi sex combs)","dsRNA":"DRSC17819","call":"inactive"}
{"predicted target":"Ntan1 (N-terminal amidohydrolase 1)","dsRNA":"DRSC07546","call":"inactive"}
{"predicted target":"Acbp2 (Acyl-CoA binding protein 2)","dsRNA":"DRSC11141","call":"inactive"}
{"predicted target":"CG4496","dsRNA":"DRSC02753","call":"inactive"}
{"predicted target":"CG32369","dsRNA":"DRSC10042","call":"inactive"}
{"predicted target":"CG32369","dsRNA":"DRSC10834","call":"inactive"}

Active calls, among the entries above:
{"predicted target":"wdb (widerborst)","dsRNA":"DRSC14163","call":"active"}
